Reference: PubChem BioAssay AID493196 (Broad Institute, 2011)
Inconclusive means that the source gave no clear call. Such entries were picked first, then a sample of the others. Active and inactive are the calls of the source.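 How the source made its calls: active means every repeat test active, with falling signal and half-maximal dose at most ten times the top dose; inconclusive means repeat tests disagree, or a weak flat or poor fit; inactive means all tests inactive, including signal shifting the wrong way.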

Test: HMLE_sh_eGFP viability loss – cell-based, luminescence, dry powder, set 3, counter-screen for breast cancer stem cell project, dose response (AID 493196)
Conditions: CellTiter-Glo luminescence, 72 h; at 19.5 µM (top of the series)
Outline: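 Material: HMLE_sh_eGFP breast epithelial cells carrying eGFP-targeting shRNA; Quantity: 2000 cells/well; Times: ≥4 h attachment, ~70–74 h exposure, 37 °C, 5% CO2; Detection: CellTiter-Glo luminescence.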

Q: Which activity change, negative = cytotoxic does the source give for `Cc1ccc(N2C(=O)CC(N(CCc3ccccc3)C(=S)Nc3ccc(N(C)C)cc3)C2=O)cc1` (centres undefined) here?
A: Its activity change, negative = cytotoxic is inconclusive: -14.5%.

Q: For `CC(C)CC(=O)NC(NC(=S)Nc1sc2c(c1C#N)CCCC2)C(Cl)(Cl)Cl` (centres undefined), which activity change, negative = cytotoxic is on record?
A: The activity change, negative = cytotoxic was inconclusive: -83.1%.

Q: For `O=C(c1ccccc1)c1coc2ccc(O)c(Br)c12`, which activity change, negative = cytotoxic is on record?
A: The activity change, negative = cytotoxic was inactive: 1.2%.

Q: Which activity change, negative = cytotoxic does the source give for `Cc1csc(NC(=O)c2ccc(COc3ccccc3)o2)n1` here?
A: The activity change, negative = cytotoxic was inconclusive: -21.2%.
